Test results as given in the supplement of paper PMC7666118.
The other results are listed elsewhere or left out.

Sequences of proteins named here, by UniProt entry; tags and fusion partners are left off. A change or cut given only in a name is not applied to a line headed by its entry.
UniProt Q9H9V9: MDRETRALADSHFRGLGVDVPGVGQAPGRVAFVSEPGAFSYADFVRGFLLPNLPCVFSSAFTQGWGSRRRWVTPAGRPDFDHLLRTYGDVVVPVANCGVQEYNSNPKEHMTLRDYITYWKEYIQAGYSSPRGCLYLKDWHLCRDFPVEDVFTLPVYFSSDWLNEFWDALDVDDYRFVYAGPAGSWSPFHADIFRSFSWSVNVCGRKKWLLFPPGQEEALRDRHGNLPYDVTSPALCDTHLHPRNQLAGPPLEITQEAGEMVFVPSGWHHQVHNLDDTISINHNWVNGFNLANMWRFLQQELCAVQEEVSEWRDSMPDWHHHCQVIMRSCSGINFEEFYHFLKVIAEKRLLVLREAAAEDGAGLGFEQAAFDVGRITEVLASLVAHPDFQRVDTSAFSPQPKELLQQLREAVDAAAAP
UniProt O75874, whole entry: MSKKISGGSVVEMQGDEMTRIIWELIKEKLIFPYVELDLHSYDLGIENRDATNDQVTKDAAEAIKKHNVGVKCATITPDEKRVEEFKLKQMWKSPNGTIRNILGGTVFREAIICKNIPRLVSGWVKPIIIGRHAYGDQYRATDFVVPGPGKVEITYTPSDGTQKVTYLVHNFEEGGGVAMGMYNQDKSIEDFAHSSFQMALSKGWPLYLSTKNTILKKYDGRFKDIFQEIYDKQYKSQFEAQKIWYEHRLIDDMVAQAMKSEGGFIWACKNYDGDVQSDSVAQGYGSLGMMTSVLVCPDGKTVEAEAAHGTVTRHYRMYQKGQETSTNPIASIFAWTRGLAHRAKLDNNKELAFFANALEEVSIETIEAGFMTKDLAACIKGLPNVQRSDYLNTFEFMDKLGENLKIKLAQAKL
UniProt Q06136: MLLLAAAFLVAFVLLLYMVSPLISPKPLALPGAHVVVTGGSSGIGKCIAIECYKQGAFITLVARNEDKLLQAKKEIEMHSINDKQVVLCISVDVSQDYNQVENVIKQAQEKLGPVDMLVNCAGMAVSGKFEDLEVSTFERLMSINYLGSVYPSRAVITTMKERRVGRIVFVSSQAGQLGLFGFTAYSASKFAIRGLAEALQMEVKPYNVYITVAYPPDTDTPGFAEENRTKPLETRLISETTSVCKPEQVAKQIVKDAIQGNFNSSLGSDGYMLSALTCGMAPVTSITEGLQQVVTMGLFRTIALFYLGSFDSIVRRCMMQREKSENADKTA
UniProt Q12768: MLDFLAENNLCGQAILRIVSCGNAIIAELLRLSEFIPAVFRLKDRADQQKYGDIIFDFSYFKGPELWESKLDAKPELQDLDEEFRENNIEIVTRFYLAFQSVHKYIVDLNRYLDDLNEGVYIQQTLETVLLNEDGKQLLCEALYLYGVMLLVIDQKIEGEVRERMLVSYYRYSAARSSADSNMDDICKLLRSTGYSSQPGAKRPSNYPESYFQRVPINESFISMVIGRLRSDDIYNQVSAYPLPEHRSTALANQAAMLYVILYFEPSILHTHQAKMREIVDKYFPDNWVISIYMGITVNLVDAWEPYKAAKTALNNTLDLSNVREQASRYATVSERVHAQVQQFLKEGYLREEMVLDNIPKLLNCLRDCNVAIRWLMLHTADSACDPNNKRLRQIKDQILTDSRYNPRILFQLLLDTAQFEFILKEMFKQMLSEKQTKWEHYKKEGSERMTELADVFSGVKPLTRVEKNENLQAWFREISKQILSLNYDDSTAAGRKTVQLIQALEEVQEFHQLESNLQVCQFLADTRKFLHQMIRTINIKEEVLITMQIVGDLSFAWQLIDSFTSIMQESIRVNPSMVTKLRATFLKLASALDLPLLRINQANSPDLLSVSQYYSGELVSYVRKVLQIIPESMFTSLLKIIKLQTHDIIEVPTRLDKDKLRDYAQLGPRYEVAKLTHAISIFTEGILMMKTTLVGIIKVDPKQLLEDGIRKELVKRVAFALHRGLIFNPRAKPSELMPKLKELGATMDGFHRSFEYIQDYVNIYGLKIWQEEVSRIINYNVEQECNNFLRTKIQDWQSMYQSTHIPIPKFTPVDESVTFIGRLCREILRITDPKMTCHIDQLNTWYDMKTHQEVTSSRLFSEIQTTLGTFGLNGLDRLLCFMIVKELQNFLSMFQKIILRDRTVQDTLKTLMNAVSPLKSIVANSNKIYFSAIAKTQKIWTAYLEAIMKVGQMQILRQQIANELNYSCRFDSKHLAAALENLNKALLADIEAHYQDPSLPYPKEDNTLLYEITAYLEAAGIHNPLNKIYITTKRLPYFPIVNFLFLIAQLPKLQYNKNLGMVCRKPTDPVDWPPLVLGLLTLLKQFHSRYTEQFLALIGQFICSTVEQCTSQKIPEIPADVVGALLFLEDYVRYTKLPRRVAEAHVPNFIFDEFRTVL
UniProt Q7Z4H8: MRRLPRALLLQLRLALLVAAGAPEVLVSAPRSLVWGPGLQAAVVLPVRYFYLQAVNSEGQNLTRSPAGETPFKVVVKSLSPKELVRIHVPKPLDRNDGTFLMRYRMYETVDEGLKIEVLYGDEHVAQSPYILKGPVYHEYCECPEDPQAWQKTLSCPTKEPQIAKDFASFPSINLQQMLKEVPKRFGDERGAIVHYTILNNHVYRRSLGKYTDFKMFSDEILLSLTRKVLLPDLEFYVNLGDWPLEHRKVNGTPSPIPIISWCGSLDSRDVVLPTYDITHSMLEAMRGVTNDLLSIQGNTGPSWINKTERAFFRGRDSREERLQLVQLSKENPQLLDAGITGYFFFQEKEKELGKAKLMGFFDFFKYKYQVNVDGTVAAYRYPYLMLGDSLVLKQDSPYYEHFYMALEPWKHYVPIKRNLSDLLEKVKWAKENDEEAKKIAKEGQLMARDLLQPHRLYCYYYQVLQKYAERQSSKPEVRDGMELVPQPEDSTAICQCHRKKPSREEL
UniProt Q9Y287, whole entry, looked up: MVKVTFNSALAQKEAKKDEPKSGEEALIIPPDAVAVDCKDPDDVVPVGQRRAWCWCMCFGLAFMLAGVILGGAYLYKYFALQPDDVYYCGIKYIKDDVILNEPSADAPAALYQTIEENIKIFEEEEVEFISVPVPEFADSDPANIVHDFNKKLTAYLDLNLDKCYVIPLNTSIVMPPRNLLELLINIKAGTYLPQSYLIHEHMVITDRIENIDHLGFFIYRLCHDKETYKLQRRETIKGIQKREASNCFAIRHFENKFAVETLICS
UniProt Q9P0J7: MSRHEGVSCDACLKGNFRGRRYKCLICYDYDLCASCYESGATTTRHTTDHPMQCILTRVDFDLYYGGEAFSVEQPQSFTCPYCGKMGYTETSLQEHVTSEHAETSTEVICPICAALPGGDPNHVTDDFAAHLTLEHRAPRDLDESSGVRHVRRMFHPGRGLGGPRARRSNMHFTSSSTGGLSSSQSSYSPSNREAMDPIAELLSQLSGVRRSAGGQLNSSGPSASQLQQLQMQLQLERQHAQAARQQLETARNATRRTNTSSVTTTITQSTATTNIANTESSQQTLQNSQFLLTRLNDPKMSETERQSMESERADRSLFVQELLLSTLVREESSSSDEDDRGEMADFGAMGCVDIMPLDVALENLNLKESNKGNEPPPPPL
UniProt Q9ULR0: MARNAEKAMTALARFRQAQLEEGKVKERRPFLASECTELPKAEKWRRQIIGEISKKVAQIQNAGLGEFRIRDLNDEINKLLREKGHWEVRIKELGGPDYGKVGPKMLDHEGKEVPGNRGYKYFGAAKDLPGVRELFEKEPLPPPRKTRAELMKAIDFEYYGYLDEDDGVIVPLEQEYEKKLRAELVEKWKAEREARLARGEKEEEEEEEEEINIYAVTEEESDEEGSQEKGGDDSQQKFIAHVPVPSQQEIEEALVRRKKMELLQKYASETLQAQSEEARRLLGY
UniProt P41252: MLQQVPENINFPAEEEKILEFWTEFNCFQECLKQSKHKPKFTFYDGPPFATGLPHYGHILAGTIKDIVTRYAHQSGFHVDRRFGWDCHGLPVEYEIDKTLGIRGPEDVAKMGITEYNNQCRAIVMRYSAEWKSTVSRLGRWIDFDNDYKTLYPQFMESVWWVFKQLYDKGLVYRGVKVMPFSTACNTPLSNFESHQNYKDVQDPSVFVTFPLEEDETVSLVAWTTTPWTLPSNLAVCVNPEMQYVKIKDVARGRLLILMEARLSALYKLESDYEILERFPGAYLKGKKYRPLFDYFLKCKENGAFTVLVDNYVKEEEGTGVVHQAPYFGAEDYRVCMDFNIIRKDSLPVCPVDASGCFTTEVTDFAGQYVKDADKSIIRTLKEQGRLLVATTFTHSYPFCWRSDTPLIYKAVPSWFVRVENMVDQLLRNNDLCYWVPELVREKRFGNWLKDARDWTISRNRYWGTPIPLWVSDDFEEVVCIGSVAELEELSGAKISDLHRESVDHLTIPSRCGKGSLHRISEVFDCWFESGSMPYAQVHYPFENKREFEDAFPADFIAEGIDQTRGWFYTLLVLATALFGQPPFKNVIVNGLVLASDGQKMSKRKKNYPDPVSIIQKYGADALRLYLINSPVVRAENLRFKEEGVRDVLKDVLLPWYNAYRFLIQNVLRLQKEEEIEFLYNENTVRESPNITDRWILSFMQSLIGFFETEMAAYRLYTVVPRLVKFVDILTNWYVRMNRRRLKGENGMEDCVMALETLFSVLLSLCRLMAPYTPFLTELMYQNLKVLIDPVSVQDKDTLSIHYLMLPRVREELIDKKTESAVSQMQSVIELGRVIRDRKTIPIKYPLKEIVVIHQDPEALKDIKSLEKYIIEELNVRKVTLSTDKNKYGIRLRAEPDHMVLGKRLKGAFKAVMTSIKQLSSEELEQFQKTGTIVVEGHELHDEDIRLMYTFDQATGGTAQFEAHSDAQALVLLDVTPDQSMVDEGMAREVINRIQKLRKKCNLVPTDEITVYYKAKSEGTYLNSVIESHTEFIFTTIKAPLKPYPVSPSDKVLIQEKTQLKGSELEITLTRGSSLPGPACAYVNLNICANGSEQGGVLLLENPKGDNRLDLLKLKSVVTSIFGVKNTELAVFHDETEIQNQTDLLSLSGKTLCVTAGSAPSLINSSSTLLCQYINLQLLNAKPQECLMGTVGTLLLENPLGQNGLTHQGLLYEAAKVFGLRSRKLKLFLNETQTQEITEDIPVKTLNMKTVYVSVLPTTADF
UniProt Q92551: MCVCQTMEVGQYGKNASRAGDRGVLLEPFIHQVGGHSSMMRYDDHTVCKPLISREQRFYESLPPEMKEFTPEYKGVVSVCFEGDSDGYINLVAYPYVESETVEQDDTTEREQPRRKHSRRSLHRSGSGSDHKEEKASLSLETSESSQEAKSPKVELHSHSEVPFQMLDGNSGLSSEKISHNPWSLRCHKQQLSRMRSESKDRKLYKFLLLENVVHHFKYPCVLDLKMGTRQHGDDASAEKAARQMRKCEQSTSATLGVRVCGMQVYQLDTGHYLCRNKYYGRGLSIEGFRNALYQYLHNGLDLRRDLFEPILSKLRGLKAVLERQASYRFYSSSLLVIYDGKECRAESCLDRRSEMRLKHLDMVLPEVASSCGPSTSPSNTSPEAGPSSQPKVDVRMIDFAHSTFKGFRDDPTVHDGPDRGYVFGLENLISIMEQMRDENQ
UniProt Q9Y4L1: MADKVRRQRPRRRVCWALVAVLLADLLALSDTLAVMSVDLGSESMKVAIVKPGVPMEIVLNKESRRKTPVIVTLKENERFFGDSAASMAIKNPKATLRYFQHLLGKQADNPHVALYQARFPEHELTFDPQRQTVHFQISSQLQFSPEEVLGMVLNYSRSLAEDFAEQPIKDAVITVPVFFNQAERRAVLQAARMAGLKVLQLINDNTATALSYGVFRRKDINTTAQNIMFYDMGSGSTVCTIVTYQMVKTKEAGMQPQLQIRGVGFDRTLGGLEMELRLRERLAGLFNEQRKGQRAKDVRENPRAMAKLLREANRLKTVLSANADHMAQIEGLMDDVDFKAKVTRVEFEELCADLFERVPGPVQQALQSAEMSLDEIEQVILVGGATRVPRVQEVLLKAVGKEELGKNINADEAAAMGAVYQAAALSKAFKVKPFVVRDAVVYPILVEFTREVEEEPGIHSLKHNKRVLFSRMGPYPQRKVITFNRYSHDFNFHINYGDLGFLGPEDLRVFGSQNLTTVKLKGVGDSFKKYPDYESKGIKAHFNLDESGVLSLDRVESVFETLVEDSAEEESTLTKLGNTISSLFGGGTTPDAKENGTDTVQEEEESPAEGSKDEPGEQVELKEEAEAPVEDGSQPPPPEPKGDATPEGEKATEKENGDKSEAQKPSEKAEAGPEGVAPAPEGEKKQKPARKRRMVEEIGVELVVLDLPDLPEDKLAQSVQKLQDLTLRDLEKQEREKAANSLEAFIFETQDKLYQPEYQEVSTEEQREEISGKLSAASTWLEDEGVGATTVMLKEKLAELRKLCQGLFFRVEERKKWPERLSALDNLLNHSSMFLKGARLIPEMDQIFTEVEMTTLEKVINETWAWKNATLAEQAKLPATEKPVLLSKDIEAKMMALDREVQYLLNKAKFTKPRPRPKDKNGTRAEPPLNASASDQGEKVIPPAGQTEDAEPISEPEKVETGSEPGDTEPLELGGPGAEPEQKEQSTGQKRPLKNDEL

The targets below were run with COc1ccc(Cn2ccc3ccc(C(=O)NO)cc32)cc1 (assay: dose-dependent thermal stabilisation call (2D-TPP, DLPTP, 10% FDR) (binary (1 = stabilised)); higher = stabilised by the compound). Settings: system: HL-60 intact cells; concentration range 0.04-10 µM.

Target	dose-dependent thermal stabilisation call
KHDRBS3 (UniProt O75525)	inactive: 0
JMJD4 (UniProt Q9H9V9)	inactive: 0
IRAK4 (UniProt Q9NWZ3)	inactive: 0
IDH1 (UniProt O75874)	inactive: 0
KDSR (UniProt Q06136)	inactive: 0
KIAA0090 (UniProt Q8N766)	inactive: 0
KCTD10 (UniProt Q9H3F6)	inactive: 0
KDELC1 (UniProt Q6UW63)	inactive: 0
ICMT (UniProt O60725)	inactive: 0
HPS3 (UniProt Q969F9)	inactive: 0
KIAA0196 (UniProt Q12768)	inactive: 0
INHBE (UniProt P58166)	inactive: 0
IFI16 (UniProt Q16666)	inactive: 0
HSCB (UniProt Q8IWL3)	inactive: 0
HMG20B (UniProt Q9P0W2)	inactive: 0
INTS2 (UniProt Q9H0H0)	inactive: 0
JAG1 (UniProt P78504)	inactive: 0
ING1 (UniProt Q9UK53)	inactive: 0
HTATSF1 (UniProt O43719)	inactive: 0

Rewritten as a markdown table: part of the list above.

| Target | dose-dependent thermal stabilisation call |
| --- | --- |
| ICMT (UniProt O60725) | inactive: 0 |
| HPS3 (UniProt Q969F9) | inactive: 0 |

Next records follow:

Target	dose-dependent thermal stabilisation call
KDELC2 (UniProt Q7Z4H8)	inactive: 0
ITM2B (UniProt Q9Y287)	inactive: 0
HNRNPH2 (UniProt P55795)	inactive: 0
HSPH1 (UniProt Q92598)	inactive: 0
IFT74 (UniProt Q96LB3)	inactive: 0
HMOX2 (UniProt P30519)	active: 1
HNRNPR (UniProt O43390)	inactive: 0
KIAA0319L (UniProt Q8IZA0)	inactive: 0
IDE (UniProt P14735)	inactive: 0
KCMF1 (UniProt Q9P0J7)	inactive: 0
HN1L	inactive: 0
IMP4 (UniProt Q96G21)	inactive: 0
KIAA0564 (UniProt A3KMH1)	inactive: 0
JMJD7 (UniProt P0C870)	inactive: 0
ISY1 (UniProt Q9ULR0)	inactive: 0
IARS (UniProt P41252)	inactive: 0
IP6K1 (UniProt Q92551)	inactive: 0
HYOU1 (UniProt Q9Y4L1)	inactive: 0
IKBKAP (UniProt O95163)	inactive: 0
